{"source": "patent US20190314345A1", "about": "“CALCINEURIN INHIBITOR AND NON-STEROIDAL ANTI-INFLAMMATORY DRUG TO REDUCE RISK OF POST-IMAGING PANCREATITIS” (UNIVERSITY OF PITTSBURGH - OF THE COMMONWEALTH SYSTEM OF …, priority 2016, published 2019)", "key": {"NF-κB [1]": {"system": "NF-κB", "test": "Western blot for phospho-IκBα and p65 translocation in primary acinar cells", "type": "cell-based, mouse", "settings": "increasing concentrations of RC"}, "AR42J cells": {"system": "AR42J cells", "test": "Ca2+ signals (Fluo-4AM) in AR42J cells", "type": "cell-based", "settings": "RC 10-25%", "procedure": "FIG. 7A-7H. […] (A) Summation of whole cell tracings from AR42J cells loaded with Fluo-4AM and perifused with RC (iohexol; 10-25%). (B, D) Quantification of amplitude and area under the curve. (C) RC (25%)-induced acinar cell Ca^2+ signals were prevented by the PLC inhibitor U73122 (5 μM) and the IP3R inhibitor 2-APB (100 μM). (n=20-30 cells per condition). *, # P<0.05 relative to 10% RC or RC alone, respectively. AR42J cells were infected with Ad-NFAT-luciferase and stimulated with RC at (E) increasing concentrations. […] (n=3). *, #, P<0.05, relative to the control or RC alone, respectively.\nAcinar cells were loaded at room temperature with the high-affinity Ca^2+-sensing dye Fluo-4AM (Kd=300 nM; Invitrogen). Acinar cells were plated on acid-washed glass coverslips and then mounted on a perifusion chamber. Thereupon, they were stimulated at room temperature with varying concentrations of RC (17-50%) diluted in HEPES buffer. Carbachol (1 mM) was given at the end of each experiment to confirm that the cells were intact and could mobilize intracellular Ca^2+ stores. A Zeiss LSM710 laser scanning confocal microscope was used with a […], 1.4 numerical aperture objective. […] Fluorescence from individual acinar cells was recorded. Analysis of recordings was performed using ImageJ software (NIH, Bethesda, Md.), and mean fluorescence over time in each region was graphed."}, "calcineurin [2]": {"system": "calcineurin", "test": "NFAT-luciferase activity assay in mouse primary acinar cells", "type": "cell-based", "settings": "increasing RC concentrations", "procedure": "(§1) Acinar cells were infected with Ad-NFAT-luciferase following a previously described procedure^10, 15, 16. The construct includes a luciferase gene placed downstream of an IL-4 promoter which contains nine tandem NFAT binding sites^10. Acinar cells were incubated with the NFAT-driven luciferase adenovirus for 1.5 hr prior to stimulation. All of the stated inhibitors were added for 30 min prior to stimulation with RC. NFAT-luciferase was measured using the luciferase assay system. Briefly, cells were spun at 1,000 rpm for 5 min, washed with PBS, and lysed using reporter lysis 5× buffer (Promega #E397A, Madison, Wis.). Samples were vortexed and spun at 12,000 g for 2 min. Supernatant was plated, and luminescence was measured using a Synergy H1 plate reader (BioTek, Winooski, Vt.) and normalized to total protein."}, "[3]": {"system": "mouse pancreatic acinar cells", "test": "Ca2+ signals (Fluo-4AM) in mouse pancreatic acinar cells", "type": "cell-based", "procedure": "Acinar cells were loaded at room temperature with the high-affinity Ca^2+-sensing dye Fluo-4AM (Kd=300 nM; Invitrogen). Acinar cells were plated on acid-washed glass coverslips and then mounted on a perifusion chamber. Thereupon, they were stimulated at room temperature with varying concentrations of RC (17-50%) diluted in HEPES buffer. Carbachol (1 mM) was given at the end of each experiment to confirm that the cells were intact and could mobilize intracellular Ca^2+ stores. A Zeiss LSM710 laser scanning confocal microscope was used with a […], 1.4 numerical aperture objective. The dye was excited at 488 nm wavelength, and emission signals of >515 nm were collected every 2 sec. Fluorescence from individual acinar cells was recorded. Analysis of recordings was performed using ImageJ software (NIH, Bethesda, Md.), and mean fluorescence over time in each region was graphed.\nGroups of pancreatic acinar cells were isolated as previously described 26, 69 with minor modifications. Briefly, the pancreas was removed, and then minced for 5 min in buffer containing 20 mM HEPES (pH 7.4), 95 mM NaCl, 4.7 mM KCl, 0.6 mM MgCl2, 1.3 mM CaCl2=, 10 mM glucose, and 2 mM glutamine, plus 1% BSA, 1×MEM nonessential amino acids (GIBCO/BRL), 200 units/ml type-4 collagenase (Worthington, Freehold, N.J.), and 1 mg/ml soybean trypsin inhibitor. The tissue was incubated for 30 min at 37° C. with shaking at 90 rpm. The digest was transferred to a 15 mL conical tube and washed with collagenase-free buffer. The suspension was vigorously shaken for 15-20 sec to separate the cells into smaller clusters."}, "[4]": {"test": "Osmolality of iohexol, calculated and osmometer", "type": "physicochemical", "settings": "for Measured osmolality: osmometer"}, "COS7": {"system": "COS7", "test": "Ca2+ signals (Fluo-4AM) in COS7 cells", "type": "cell-based", "settings": "RC 25-75%"}, "HEK293": {"system": "HEK293", "test": "Ca2+ signals (Fluo-4AM) in HEK293 cells", "type": "cell-based", "settings": "RC 25-75%"}, "[5]": {"system": "IL-6, GADD45B, IL-1β expression", "test": "Real-time PCR gene expression from the pancreatic head", "type": "in vivo, mouse", "settings": "RC exposure, with or without FK506 pretreatment", "procedure": "Total RNA from the pancreatic head was obtained by homogenizing 40 mg of tissue in 2 ml of TRIzol reagent (Life Technologies; Grand Island N.Y.) at 4° C. and immediately flash frozen in liquid nitrogen. Samples were thawed on ice and centrifuged at 12,000×g for 10 min at 4° C. The supernatant was diluted with 200 μl of chloroform and centrifuged at 12,000×g for 15 min at 4° C. The upper aqueous phase was treated with 0.5 ml of isopropanol and centrifuged at 10,000×g for 10 min at 4° C. The pellet was resuspended with 150 μl of 75% ethanol and centrifuged at 7500×g for 5 min at 4° C. The pellet was air-dried and dissolved in 100 μl of nuclease-free water. Total RNA samples were used to generate cDNA using the iScript Advanced cDNA synthesis Kit (Bio Rad; Hercules, Calif.).\nQuantitative real-time PCR (rtPCR) was performed to determine the relative expression of the cytokines IL-6 and IL-1β as well as the cell growth arrest and DNA-damage inducible gene GADD45B. The primer pairs for each as well as a GAPDH control were obtained as part of the PrimePCR-PreAMP SYBR Green Assay (Bio Rad; unique assay ID # qMmuCEP0054186, qMmuCID0005641, qMmuCEP0039581). rtPCR reactions were carried out in 20 μl volume reactions using the SsoAdvanced Universal Supermix SYBR Green system (Bio Rad). The reactions contained 1× SsoAdvanced Universal SYBR Green Supermix, 300 nM forward Primer, 300 nM reverse primer and 100 ng cDNA. rtPCR conditions were 95° C. for 10 sec and 60° C. for 30 sec for 35 cycles on a Bio Rad CFX96 Touch thermocycler (Bio Rad). Results for the expression of mRNA were normalized to expression of […] and are represented relative to expression levels for each of the control groups."}, "[6]": {"system": "human pancreatic acinar cells", "test": "Ca2+ signals (Fluo-4AM) in human acinar cells", "type": "cell-based", "settings": "live human acinar cells from cadaveric donors"}, "calcineurin [7]": {"system": "calcineurin", "test": "NFAT-luciferase activity assay in human acinar cells", "type": "cell-based", "settings": "live human acinar cells from cadaveric donors", "procedure": "as §1"}, "calcineurin [8]": {"system": "calcineurin", "test": "NFAT-luciferase activity assay in AR42J cells", "type": "cell-based", "settings": "RC", "procedure": "as §1"}, "[9]": {"settings": "Omnipaque 300, full strength; cited from earlier work"}, "NF-κB [10]": {"system": "NF-κB", "test": "NF-κB-luciferase activity assay in AR42J cells", "type": "cell-based", "settings": "increasing RC concentrations and times", "procedure": "AR42J cells were differentiated towards an acinar phenotype by administering dexamethasone (100 nM) for 48-72 hr^17. AR42J cells were infected with Ad-NF-κB luciferase 16 h prior to stimulation using a previously described method^12. Following a wash with DMEM/F12 medium, acinar cells were evenly distributed in a 48-well plate and incubated for 30 min at 37° C. They were incubated with RC at varying concentrations and times. NF-κB-luciferase was measured using a commercially available luciferase assay (Promega, Madison, Wis.). Briefly, cells were spun at 1,000 rpm for 5 min, washed with PBS, and lysed using reporter lysis 5× buffer (Promega, catalog no. E397A). Samples were vortexed and spun at 12,000×g for 2 min. The supernatant was plated, and luminescence was measured using a Synergy H1 plate reader (BioTek, Winooski, Vt.) and normalized to […]."}}, "note": "At least one compound was matched to its structure with a doubt left."}
{"smiles": "CC(=O)N(CC(O)CO)c1c(I)c(C(=O)NCC(O)CO)c(I)c(C(=O)NCC(O)CO)c1I", "note": "(stereo not shown) [RC, iohexol]", "values": [{"measurement": "nuclear translocation of p65", "setting": "NF-κB [1]", "value": "induced"}, {"measurement": "phosphorylation of IκBα at Serine 32", "setting": "NF-κB [1]", "value": "induced"}, {"measurement": "Ca2+ signals", "setting": "AR42J cells", "value": "induced"}, {"measurement": "NFAT-luciferase", "setting": "calcineurin [2]", "value": "concentration-dependent increase"}, {"measurement": "Ca2+ signal elicited", "setting": "[3]; 17% to 20% RC", "value": "low-amplitude Ca^2+ transients"}, {"measurement": "time to Ca2+ transients", "setting": "[3]; 17% to 20% RC", "value": "≤ 100", "unit": "s"}, {"measurement": "Ca2+ signal initiation in Ca2+-free media", "setting": "[3]; Ca2+-free media", "value": "initiated in the same way"}, {"measurement": "Calculated osmolality", "setting": "[4]; Radiocontrast 5%", "value": 347, "unit": "mOsm/kg"}, {"measurement": "Measured osmolality", "setting": "[4]; Radiocontrast 5%", "value": 356, "unit": "mOsm/kg"}, {"measurement": "Calculated osmolality", "setting": "[4]; Radiocontrast 10%", "value": 364, "unit": "mOsm/kg"}, {"measurement": "Measured osmolality", "setting": "[4]; Radiocontrast 10%", "value": 396, "unit": "mOsm/kg"}, {"measurement": "Calculated osmolality", "setting": "[4]; Radiocontrast 15%", "value": 381, "unit": "mOsm/kg"}, {"measurement": "Measured osmolality", "setting": "[4]; Radiocontrast 15%", "value": 409, "unit": "mOsm/kg"}, {"measurement": "Calculated osmolality", "setting": "[4]; Radiocontrast 25%", "value": 416, "unit": "mOsm/kg"}, {"measurement": "Measured osmolality", "setting": "[4]; Radiocontrast 25%", "value": 459, "unit": "mOsm/kg"}, {"measurement": "robust Ca2+ signals", "setting": "COS7", "value": "not observed"}, {"measurement": "robust Ca2+ signals", "setting": "HEK293", "value": "not observed"}, {"measurement": "gene expression of GADD45B", "setting": "[5]", "value": "upregulated"}, {"measurement": "gene expression of IL-1β", "setting": "[5]", "value": "upregulated"}, {"measurement": "gene expression of IL-6", "setting": "[5]", "value": "upregulated"}, {"measurement": "Ca2+ signals", "setting": "[6]", "value": "induced"}, {"measurement": "calcineurin activation", "setting": "calcineurin [7]", "value": "induced"}, {"measurement": "calcineurin activation", "setting": "calcineurin [8]", "value": "activated"}, {"measurement": "osmolality at full strength", "setting": "[9]", "value": 672, "unit": "mOsm/kg"}, {"measurement": "NF-κB-luciferase", "setting": "NF-κB [10]", "value": "concentration- and time-dependent increase"}]}
